{"source": "PubChem BioAssay AID1508588 (Peter MacCallum Cancer Centre, 2020)", "aim": "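Which gene losses make BRAF-mutant melanoma cells more responsive to vemurafenib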 (primary screen)", "system": "human WM266.4 melanoma cells (BRAF V600 mutant)", "reagent": "siRNA pool against human genes, 40 nM", "timing": "96 h from transfection to read-out", "treatment": "vemurafenib 300 nM (about IC25), added 48 h after transfection, for 48 h; comparison arm got DMSO vehicle only", "measured": "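Cell gain (DAPI nuclei at end minus before drug, mean of two replicates) and medium lactate by absorbance per cell, both as ratio to non-targeting siRNA, also grouped into fold-change classes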", "scale": "cell gain with vemurafenib: higher = more cell gain than with non-targeting siRNA; lactate per cell with vemurafenib: higher = more lactate made per cell", "active means": "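a knock-down counts as enhancing when its fold-change classes with vehicle and with vemurafenib, taken together, show a stronger drug effect on cell gain or lactate per cell; exact class pairs not stated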", "meaning of the calls": "active = enhances vemurafenib effect; inactive = no enhancement seen", "note": "Here is an unselected part of about 18,000 deposited reagents. 790 of all reagents (4.4%) were called active. 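Calls rest on a combination of fold-change classes in drug and vehicle arms, not all shown here.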 No sequences are given here."}
The opening 4 records, to show the layout:
{"gene knocked down": "PATL1 (PAT1 homolog 1, processing body mRNA decay factor)", "cell gain with vemurafenib": 0.15, "lactate per cell with vemurafenib": 1.01, "Outcome": "active"}
{"gene knocked down": "XPO6 (exportin 6)", "cell gain with vemurafenib": 1.11, "lactate per cell with vemurafenib": 0.58, "Outcome": "inactive"}
{"gene knocked down": "CFAP119 (cilia and flagella associated protein 119)", "cell gain with vemurafenib": 0.66, "lactate per cell with vemurafenib": 1.09, "Outcome": "inactive"}
{"gene knocked down": "ZKSCAN5 (zinc finger with KRAB and SCAN domains 5)", "cell gain with vemurafenib": 0.3, "lactate per cell with vemurafenib": 2.5, "Outcome": "inactive"}

The list itself, repeating the preview:
{"gene knocked down": "PATL1 (PAT1 homolog 1, processing body mRNA decay factor)", "cell gain with vemurafenib": 0.15, "lactate per cell with vemurafenib": 1.01, "Outcome": "active"}
{"gene knocked down": "XPO6 (exportin 6)", "cell gain with vemurafenib": 1.11, "lactate per cell with vemurafenib": 0.58, "Outcome": "inactive"}
{"gene knocked down": "CFAP119 (cilia and flagella associated protein 119)", "cell gain with vemurafenib": 0.66, "lactate per cell with vemurafenib": 1.09, "Outcome": "inactive"}
{"gene knocked down": "ZKSCAN5 (zinc finger with KRAB and SCAN domains 5)", "cell gain with vemurafenib": 0.3, "lactate per cell with vemurafenib": 2.5, "Outcome": "inactive"}
{"gene knocked down": "SAMD4A (sterile alpha motif domain containing 4A)", "cell gain with vemurafenib": 0.94, "lactate per cell with vemurafenib": 0.58, "Outcome": "inactive"}
{"gene knocked down": "DEFB129 (defensin beta 129)", "cell gain with vemurafenib": 0.61, "lactate per cell with vemurafenib": 0.7, "Outcome": "inactive"}
{"gene knocked down": "TBC1D24 (TBC1 domain family member 24)", "cell gain with vemurafenib": 0.28, "lactate per cell with vemurafenib": 0.8, "Outcome": "inactive"}
{"gene knocked down": "NR3C2 (nuclear receptor subfamily 3 group C member 2)", "cell gain with vemurafenib": 0.85, "lactate per cell with vemurafenib": 1.1, "Outcome": "inactive"}
{"gene knocked down": "LAT (linker for activation of T cells)", "cell gain with vemurafenib": 0.8, "lactate per cell with vemurafenib": 0.88, "Outcome": "inactive"}
{"gene knocked down": "NDUFAF5 (NADH:ubiquinone oxidoreductase complex assembly factor 5)", "cell gain with vemurafenib": 0.78, "lactate per cell with vemurafenib": 0.6, "Outcome": "inactive"}
{"gene knocked down": "ATAD3A (ATPase family AAA domain containing 3A)", "cell gain with vemurafenib": 0.83, "lactate per cell with vemurafenib": 0.69, "Outcome": "inactive"}
{"gene knocked down": "LENEP (lens epithelial protein)", "cell gain with vemurafenib": 0.63, "lactate per cell with vemurafenib": 0.69, "Outcome": "inactive"}
{"gene knocked down": "OR5L2 (olfactory receptor family 5 subfamily L member 2)", "cell gain with vemurafenib": 0.46, "lactate per cell with vemurafenib": 0.16, "Outcome": "inactive"}
{"gene knocked down": "GIMAP6 (GTPase, IMAP family member 6)", "cell gain with vemurafenib": 0.92, "lactate per cell with vemurafenib": 0.6, "Outcome": "inactive"}
{"gene knocked down": "GABRG2 (gamma-aminobutyric acid type A receptor subunit gamma2)", "cell gain with vemurafenib": 0.7, "lactate per cell with vemurafenib": 0.46, "Outcome": "inactive"}
{"gene knocked down": "FCER1A (Fc epsilon receptor Ia)", "cell gain with vemurafenib": 0.57, "lactate per cell with vemurafenib": 1.25, "Outcome": "inactive"}
{"gene knocked down": "CHRAC1 (chromatin accessibility complex subunit 1)", "cell gain with vemurafenib": 0.56, "lactate per cell with vemurafenib": 0.5, "Outcome": "inactive"}
{"gene knocked down": "NR1D1 (nuclear receptor subfamily 1 group D member 1)", "cell gain with vemurafenib": 0.62, "lactate per cell with vemurafenib": 0.11, "Outcome": "inactive"}
{"gene knocked down": "THAP6 (THAP domain containing 6)", "cell gain with vemurafenib": 0.24, "lactate per cell with vemurafenib": 0.84, "Outcome": "inactive"}
{"gene knocked down": "SIRAL2 (SIR2 antiphage like 2)", "cell gain with vemurafenib": 0.36, "lactate per cell with vemurafenib": 1.11, "Outcome": "inactive"}
{"gene knocked down": "VASH2 (vasohibin 2)", "cell gain with vemurafenib": 0.83, "lactate per cell with vemurafenib": 0.49, "Outcome": "inactive"}
{"gene knocked down": "PLAAT2 (phospholipase A and acyltransferase 2)", "cell gain with vemurafenib": 0.57, "lactate per cell with vemurafenib": 0.81, "Outcome": "inactive"}
{"gene knocked down": "IL12B (interleukin 12B)", "cell gain with vemurafenib": 0.91, "lactate per cell with vemurafenib": 0.7, "Outcome": "inactive"}
{"gene knocked down": "FRMPD2 (FERM and PDZ domain containing 2)", "cell gain with vemurafenib": 0.05, "lactate per cell with vemurafenib": -0.14, "Outcome": "active"}
{"gene knocked down": "CCDC90B (coiled-coil domain containing 90B)", "cell gain with vemurafenib": 0.78, "lactate per cell with vemurafenib": 1.39, "Outcome": "inactive"}
{"gene knocked down": "TNFSF18 (TNF superfamily member 18)", "cell gain with vemurafenib": 1.05, "lactate per cell with vemurafenib": 0.69, "Outcome": "inactive"}
{"gene knocked down": "STXBP3 (syntaxin binding protein 3)", "cell gain with vemurafenib": 0.32, "lactate per cell with vemurafenib": 0.66, "Outcome": "inactive"}
{"gene knocked down": "TUBG2 (tubulin gamma 2)", "cell gain with vemurafenib": 0.48, "lactate per cell with vemurafenib": 0.84, "Outcome": "inactive"}
{"gene knocked down": "OPN1MW (opsin 1, medium wave sensitive)", "cell gain with vemurafenib": 0.85, "lactate per cell with vemurafenib": 0.62, "Outcome": "inactive"}
{"gene knocked down": "CHRNB4 (cholinergic receptor nicotinic beta 4 subunit)", "cell gain with vemurafenib": 0.63, "lactate per cell with vemurafenib": 0.83, "Outcome": "inactive"}
{"gene knocked down": "INSM1 (INSM transcriptional repressor 1)", "cell gain with vemurafenib": 0.46, "lactate per cell with vemurafenib": 1.65, "Outcome": "inactive"}
{"gene knocked down": "KCNA10 (potassium voltage-gated channel subfamily A member 10)", "cell gain with vemurafenib": 0.68, "lactate per cell with vemurafenib": 0.52, "Outcome": "inactive"}
{"gene knocked down": "ALKBH5 (alkB homolog 5, RNA demethylase)", "cell gain with vemurafenib": 0.03, "lactate per cell with vemurafenib": 2.01, "Outcome": "inactive"}
{"gene knocked down": "CCR5 (C-C motif chemokine receptor 5)", "cell gain with vemurafenib": 0.35, "lactate per cell with vemurafenib": 0.76, "Outcome": "inactive"}
{"gene knocked down": "MIR9-1HG (MIR9-1 host gene)", "cell gain with vemurafenib": 0.76, "lactate per cell with vemurafenib": 1.1, "Outcome": "inactive"}
{"gene knocked down": "PSMC3IP (PSMC3 interacting protein)", "cell gain with vemurafenib": 0.48, "lactate per cell with vemurafenib": 1.38, "Outcome": "inactive"}
{"gene knocked down": "AGBL5 (AGBL carboxypeptidase 5)", "cell gain with vemurafenib": 0.51, "lactate per cell with vemurafenib": 1.09, "Outcome": "inactive"}
{"gene knocked down": "PODNL1 (podocan like 1)", "cell gain with vemurafenib": -0.15, "lactate per cell with vemurafenib": 2.84, "Outcome": "inactive"}
{"gene knocked down": "AHSA2P (activator of HSP90 ATPase homolog 2, pseudogene)", "cell gain with vemurafenib": 0.87, "lactate per cell with vemurafenib": 0.84, "Outcome": "inactive"}
{"gene knocked down": "ZNF517 (zinc finger protein 517)", "cell gain with vemurafenib": 0.55, "lactate per cell with vemurafenib": 1.28, "Outcome": "inactive"}
